No constants are given. Whether binding was seen depends on the method and setting. In cells and extracts the contact can be indirect. Some binding calls cover weakened binding; strength is not graded here.
B1: inward-rectifying potassium ion channel Kir4.1 (protein, UniProt P49655 1-379)
chain: MTSVAKVYYSQTTQTESRPLVAPGIRRRRVLTKDGRSNVRMEHIADKRFLYLKDLWTTFIDMQWRYKLLLFSATFAGTWFLFGVVWYLVAVAHGDLLELGPPANHTPCVVQVHTLTGAFLFSLESQTTIGYGFRYISEECPLAIVLLIAQLVLTTILEIFITGTFLAKIARPKKRAETIRFSQHAVVAYHNGKLCLMIRVANMRKSLLIGCQVTGKLLQTHQTKEGENIRLNQVNVTFQVDTASDSPFLILPLTFYHVVDETSPLKDLPLRSGEGDFELVLILSGTVESTSATCQVRTSYLPEEILWGYEFTPAISLSASGKYVADFSLFDQVVKVASPGGLRDSTVRYGDPEKLKLEESLREQAEKEGSALSVRISNV

Amino acid sequences for entries named in this document (tags omitted). Residues count along the entry.
UniProt P31424, residues 21-1203: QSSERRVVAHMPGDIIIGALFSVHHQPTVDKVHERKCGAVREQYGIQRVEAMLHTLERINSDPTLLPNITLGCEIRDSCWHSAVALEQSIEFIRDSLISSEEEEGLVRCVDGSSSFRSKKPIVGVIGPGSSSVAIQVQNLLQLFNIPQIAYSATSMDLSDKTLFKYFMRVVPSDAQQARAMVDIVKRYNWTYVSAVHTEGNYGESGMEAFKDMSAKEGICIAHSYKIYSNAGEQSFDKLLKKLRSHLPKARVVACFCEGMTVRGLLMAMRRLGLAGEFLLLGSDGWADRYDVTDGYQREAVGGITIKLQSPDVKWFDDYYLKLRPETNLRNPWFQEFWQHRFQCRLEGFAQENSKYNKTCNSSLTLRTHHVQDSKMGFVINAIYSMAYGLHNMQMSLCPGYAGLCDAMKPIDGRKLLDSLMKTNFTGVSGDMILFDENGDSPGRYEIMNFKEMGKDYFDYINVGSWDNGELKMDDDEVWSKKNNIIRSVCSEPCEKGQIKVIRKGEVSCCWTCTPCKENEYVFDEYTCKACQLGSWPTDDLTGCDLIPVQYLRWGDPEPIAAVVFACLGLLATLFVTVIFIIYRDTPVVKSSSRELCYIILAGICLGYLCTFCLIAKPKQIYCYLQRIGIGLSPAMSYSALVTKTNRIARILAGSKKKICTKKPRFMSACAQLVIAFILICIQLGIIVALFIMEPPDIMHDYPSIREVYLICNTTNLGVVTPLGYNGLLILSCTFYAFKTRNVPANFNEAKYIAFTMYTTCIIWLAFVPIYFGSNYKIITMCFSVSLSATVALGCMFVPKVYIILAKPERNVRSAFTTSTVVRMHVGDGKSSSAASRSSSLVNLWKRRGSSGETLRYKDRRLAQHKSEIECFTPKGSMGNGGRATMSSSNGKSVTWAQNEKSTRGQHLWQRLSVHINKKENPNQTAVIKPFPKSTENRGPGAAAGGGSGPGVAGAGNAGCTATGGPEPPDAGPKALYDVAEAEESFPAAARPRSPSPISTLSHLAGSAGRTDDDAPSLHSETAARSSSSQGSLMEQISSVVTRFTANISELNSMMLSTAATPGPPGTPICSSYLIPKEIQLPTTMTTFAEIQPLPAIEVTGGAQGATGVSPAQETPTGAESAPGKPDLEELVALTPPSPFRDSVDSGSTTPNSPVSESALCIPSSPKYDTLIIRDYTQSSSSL
UniProt P47863: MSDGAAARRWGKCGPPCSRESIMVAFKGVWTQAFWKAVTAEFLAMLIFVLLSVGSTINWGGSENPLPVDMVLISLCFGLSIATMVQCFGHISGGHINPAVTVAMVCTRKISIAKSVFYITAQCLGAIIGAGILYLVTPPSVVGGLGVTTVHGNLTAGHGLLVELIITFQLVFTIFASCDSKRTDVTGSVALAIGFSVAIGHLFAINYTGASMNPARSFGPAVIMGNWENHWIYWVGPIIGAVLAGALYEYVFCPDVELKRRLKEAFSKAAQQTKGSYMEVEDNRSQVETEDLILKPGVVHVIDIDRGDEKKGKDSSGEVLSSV

Biological target: metabotropic glutamate receptor 5 (rat (endogenous in retina)) (UniProt P31424)
Assay: co-IP; anti-mGluR5 antibody incubated with crude rat retinal lysate (RIPA buffer: PBS with 1% NP-40, 0.5% sodium deoxycholate, 0.1% SDS, with protease and phosphatase inhibitors), precipitated with protein-G agarose; immunoblot for AQP4 and Kir4.1; IgG negative control

| Molecule | binding |
| --- | --- |
| aquaporin-4 (from UniProt P47863 1-323) | binds |
| B1 | binds |
